No constants are given. Whether binding was seen depends on the method and setting. In cells and extracts the contact can be indirect. Here binding means that the protein was enriched with, or labelled near, the bait; the list need not be complete. Sequences can lack the tags named with a protein.
Target: T1, C-terminal FLAG-tagged PflB (C. jejuni 81–176)
T1 sequence: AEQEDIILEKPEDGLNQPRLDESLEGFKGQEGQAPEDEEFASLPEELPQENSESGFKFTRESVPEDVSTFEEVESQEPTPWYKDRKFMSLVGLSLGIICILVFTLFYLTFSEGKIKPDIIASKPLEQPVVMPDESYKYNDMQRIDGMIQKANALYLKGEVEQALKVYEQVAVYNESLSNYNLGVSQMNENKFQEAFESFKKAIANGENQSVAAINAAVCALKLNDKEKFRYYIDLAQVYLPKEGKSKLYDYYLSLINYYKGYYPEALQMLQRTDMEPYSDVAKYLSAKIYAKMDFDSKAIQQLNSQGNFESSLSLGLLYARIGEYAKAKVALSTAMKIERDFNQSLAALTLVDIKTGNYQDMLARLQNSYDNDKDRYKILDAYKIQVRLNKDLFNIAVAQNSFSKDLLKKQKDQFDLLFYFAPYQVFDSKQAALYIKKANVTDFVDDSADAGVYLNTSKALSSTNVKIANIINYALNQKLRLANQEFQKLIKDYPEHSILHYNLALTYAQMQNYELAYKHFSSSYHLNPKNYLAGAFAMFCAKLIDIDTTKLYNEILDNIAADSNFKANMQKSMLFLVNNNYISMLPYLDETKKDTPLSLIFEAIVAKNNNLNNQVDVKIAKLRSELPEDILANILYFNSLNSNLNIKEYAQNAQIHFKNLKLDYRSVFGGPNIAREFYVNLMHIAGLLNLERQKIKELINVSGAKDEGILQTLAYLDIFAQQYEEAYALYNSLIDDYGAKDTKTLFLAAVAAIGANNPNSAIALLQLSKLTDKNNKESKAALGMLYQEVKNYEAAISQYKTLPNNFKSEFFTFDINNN
Assay: affinity purification with mass spectrometry; C. jejuni 81–176 ΔpflA or ΔpflB expressing FLAG-tagged PflA or PflB; cells crosslinked with 0.1% formaldehyde, osmotic lysis, α-FLAG M2 affinity resin, LC-MS/MS; FLAG-tag alone as negative control

## FliL (from UniProt A0A0H3PIF6)
  binding: binds

Source: publication doi:10.1101/2023.09.08.556779, “Molecular model of a bacterial flagellar motor in situ reveals a “parts-list” of protein adaptations to increase torque” (bioRxiv, 2024)
